# Experimental data taken from PubChem BioAssay AID2685 (National Center for Advancing Translational Sciences (NCATS), 2010).
# The list shows a part of the results. Further columns of the screen follow, without active or inactive calls. The list favours compounds with an active or inconclusive main result. The note in brackets gives the kind of curve behind each potency; many fits are weak.
# Test: qHTS Assay for Lipid Storage Modulators in Drosophila S3 Cells;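 for cell number change: cells counted by Cell Tracker Red CMTPX staining in the red channel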
# Details: BODIPY lipid droplet fluorescence, 18-24 h; for cell number change: measured here: cell count max response, cells fed with added oleic acid
# Outline: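 Drosophila S3 cells got compounds at several concentrations plus oleic acid (400 uM solution). Laser-scanning cytometry with 488 nm excitation read lipid droplets at 500-530 nm and cells at 575-640 nm. Percent activity was relative to 20 uM Triacsin C.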
# [1] = measured here: cell number channel AC50, cells fed with added oleic acid
# [2] = measured here: lipid fluorescence (Fed channel) AC50, cells fed with added oleic acid
smiles,measurement,setting,value
Cc1nn(-c2ccccc2)c(C)c1NC(=O)Cc1cccs1,cell number change,,5.62%
same,AC50,[1],"0.92 µM [rising, full curve, poor fit]"
same,AC50,[2],"1.3 µM [rising, partial curve]"
Cc1nc2nc(SCC(=O)NCc3ccco3)nn2c(C)c1Cc1c(F)cccc1Cl,cell number change,,10.3%
CC1(C)C(=O)C2(CCCCC2)C(=O)OC1c1ccc(O)cc1 (stereo not given),cell number change,,-33%
same,AC50,[1],"29.1 µM [falling, single point]"
same,AC50,[2],"7.31 µM [falling, single point]"
Nc1ccc2nn(-c3cc([N+](=O)[O-])ccc3O)nc2c1,AC50,[2],"0.0731 µM [falling, full curve, poor fit]"
O=C(COC(=O)c1ccc(S(=O)(=O)N2CCOCC2)cc1)NC1CCCCCCC1,cell number change,,3.38%
COc1cccc(NC(=O)CN(C)C(=O)c2cccc(S(=O)(=O)N3CCN(c4ccc(F)cc4)CC3)c2)c1,cell number change,,-29.6%
same,AC50,[2],"0.00461 µM [falling, full curve, poor fit]"
COC(=O)c1ccccc1S(=O)(=O)N(Cc1ccco1)Cc1cc2cc(OC)ccc2[nH]c1=O,cell number change,,6.18%
same,AC50,[2],"6.51 µM [rising, single point]"
COc1ccc([C@@H]2C[C@H](c3ccccc3)Oc3cc(OC)c(OC)c(OC)c32)cc1,AC50,[2],"1.84 µM [falling, full curve]"
Cc1cc(C(=O)NC2CC(C)(C)Cc3c2cnn3-c2ccc(F)cc2)no1 (stereo not given),cell number change,,7.33%
CN(CC(=O)NC1CCN(Cc2ccccc2)CC1)S(=O)(=O)c1ccc(Cl)cc1,cell number change,,-40.7%
same,AC50,[1],"29.1 µM [falling, single point]"
COc1cc(C(=O)NNC(=O)c2ccc(NC(C)=O)cc2)cc(OC)c1OC,cell number change,,-1.79%
same,AC50,[2],"0.651 µM [falling, single point]"
CCOc1ccc(C(=O)NCC(=O)OCCN2C(=O)c3ccccc3C2=O)cc1OCC,cell number change,,27.7%
same,AC50,[2],"0.291 µM [rising, full curve]"
O=C(Oc1ccccc1)c1ccc(NC(=O)c2ccco2)cc1,cell number change,,16.9%
same,AC50,[2],"16.4 µM [rising, partial curve, poor fit]"
COc1ccc(C)c2sc(N(CCN(C)C)C(=O)c3cccc(N4C(=O)CCC4=O)c3)nc12,cell number change,,-16.4%
same,AC50,[2],"29.1 µM [falling, single point]"
COc1ccc(CCN(Cc2nc(-c3ccccc3)no2)Cc2nc(-c3ccccc3)no2)cc1OC,cell number change,,11.2%
same,AC50,[2],"2.31 µM [rising, partial curve]"
O=C(CN1C(=O)CSc2ccc(S(=O)(=O)N3CCOCC3)cc21)NCc1ccc(Cl)cc1,cell number change,,26.4%
same,AC50,[2],"29.1 µM [rising, single point]"
CCOC(=O)c1cnc2c(-c3ccccc3)c(-c3ccccc3)nn2c1C,cell number change,,11.3%
same,AC50,[2],"20.6 µM [rising, single point]"
CC(C)(C)S(=O)(=O)c1cnc(N2CCCC2)nc1N,AC50,[2],"0.291 µM [falling, full curve, poor fit]"
CC(C)CN(C(=O)CN1CCN(S(=O)(=O)c2ccccc2)CC1)c1c(N)n(CC(C)C)c(=O)[nH]c1=O,cell number change,,-26.8%
same,AC50,[2],"4.11 µM [falling, full curve, poor fit]"
Cc1ccc(C(=O)N2CC(C)OC(C)C2)cc1[N+](=O)[O-] (stereo not given),cell number change,,-40.9%
same,AC50,[1],"14.6 µM [falling, partial curve, poor fit]"
same,AC50,[2],"14.6 µM [falling, partial curve, poor fit]"
Fc1cc2nccnc2cc1N1CCSCC1,cell number change,,-4.15%
same,AC50,[1],"0.82 µM [falling, full curve]"
same,AC50,[2],"0.92 µM [falling, full curve]"
CC(C)C(NC(=O)c1ccc(F)cc1)C(=O)OCC(=O)N1CC(=O)Nc2ccccc21 (stereo not given),cell number change,,-54.1%
same,AC50,[1],"4.61 µM [falling, full curve]"
COc1ccc(C(=O)NCC(=O)OCC(=O)NCCC2=CCCCC2)cc1,cell number change,,-20.8%
same,AC50,[2],"16.4 µM [falling, partial curve]"
CC(=O)OC1CC(C)N(C(=O)c2ccccc2)c2ccc(C)cc21 (stereo not given),cell number change,,-33.8%
same,AC50,[1],"32.6 µM [falling, single point]"
same,AC50,[2],"29.1 µM [falling, partial curve, poor fit]"
Cc1cc(C(=O)Nc2cccc(NC(=O)c3ccco3)c2)ccc1[N+](=O)[O-],AC50,[2],"2.06 µM [falling, partial curve]"
CCn1c(SCC(=O)NNC(=O)c2ccc(C)cc2)nnc1-c1ccco1,cell number change,,-27%
same,AC50,[1],"2.06 µM [falling, partial curve, poor fit]"
same,AC50,[2],"3.26 µM [falling, partial curve, poor fit]"
Cc1ccc(CN(C#N)c2nc(C)cc(C)n2)cc1,cell number change,,-2.26%
Cn1ncc(Cl)c1C(=O)N1CCN(c2cccc(Cl)c2)CC1,AC50,[1],"6.51 µM [rising, single point]"
same,AC50,[2],"18.4 µM [rising, partial curve]"
Cc1cc(N2CCCC2)ccc1/C=N/n1cnnc1,cell number change,,1.13%
same,AC50,[2],"14.6 µM [rising, single point]"
Cn1cnc([N+](=O)[O-])c1S(=O)(=O)c1ccc(Cl)cc1,cell number change,,-71.7%
same,AC50,[1],"18.4 µM [falling, single point]"
same,AC50,[2],"16.4 µM [falling, partial curve]"
COc1cc(-c2nn3c(-c4cccc(C)c4)nnc3s2)cc(OC)c1OC,cell number change,,10.3%
same,AC50,[2],"0.731 µM [rising, full curve]"
N#Cc1cc(C(=O)c2cc(Br)ccc2O)cn(C2CCCCC2)c1=O,cell number change,,3.68%
same,AC50,[2],"32.6 µM [rising, partial curve, poor fit]"
O=C(NCCCCc1ccccc1)C1CC(c2ccc([N+](=O)[O-])cc2)=NO1 (stereo not given),cell number change,,-0.829%
same,AC50,[2],"23.1 µM [rising, single point]"
COC(=O)c1ccc(NC(=O)c2cc(-c3ccccn3)nc3ccccc23)cc1,AC50,[2],"29.1 µM [falling, single point]"
O=[N+]([O-])c1cccc(CN2CCN(Cc3ccco3)CC2)c1,cell number change,,0.901%
same,AC50,[2],"23.1 µM [falling, single point]"
c1ccc(-c2ccccc2-c2nc(-c3cccnc3)no2)cc1,cell number change,,-13.6%
CC(C)CN(C(=O)COC(=O)c1c2c(nc3ccccc13)CCC2)c1c(N)n(Cc2ccccc2)c(=O)[nH]c1=O,cell number change,,-57.8%
same,AC50,[1],"9.2 µM [falling, partial curve]"
same,AC50,[2],"7.31 µM [falling, partial curve]"
CN(C1CCCCC1)S(=O)(=O)c1ccc(NC(=O)c2ccco2)cc1,cell number change,,-3.28%
same,AC50,[1],"2.06 µM [rising, single point]"
same,AC50,[2],"6.51 µM [rising, single point]"
CC(C)(C)OC(=O)n1cc(C(=O)c2ccccc2O)cn1,cell number change,,4.05%
same,AC50,[2],"14.6 µM [rising, partial curve]"
CCN(CC)S(=O)(=O)c1ccc2[nH]cc(C(=O)NCCC3=CCCCC3)c(=O)c2c1,cell number change,,-31.1%
same,AC50,[1],"11.6 µM [falling, partial curve]"
same,AC50,[2],"8.2 µM [falling, partial curve]"
CC(=O)NC1C(Oc2ccc(C=O)cc2)OC(COC(C)=O)C(OC(C)=O)C1OC(C)=O (stereo not given),cell number change,,-28.2%
COc1ccc(CCNS(=O)(=O)c2ccc3c(c2)OCCO3)cc1,cell number change,,5.4%
same,AC50,[2],"6.51 µM [falling, single point]"
O=c1[nH]c(CN2CCN(c3ccc(O)cc3)CC2)nc2scc(-c3ccc(Cl)cc3)c12,cell number change,,82.2%
same,AC50,[1],"16.4 µM [rising, partial curve]"
same,AC50,[2],"20.6 µM [rising, partial curve]"
Cc1c(NC(=O)N(C)c2ccccc2)c(=O)n(-c2ccccc2)n1C,cell number change,,-10.1%
same,AC50,[2],"1.16 µM [falling, full curve, poor fit]"
COc1ccc(CNC(=O)C2CCC(=O)N(CC3CCCCC3)C2)cc1 (stereo not given),cell number change,,-14.1%
C=CCn1c(CC(=O)OC)csc1=Nc1ccc(C(C)=O)cc1,cell number change,,79.1%
same,AC50,[1],"5.8 µM [rising, full curve]"
same,AC50,[2],"5.17 µM [rising, full curve, poor fit]"
CC1(C)N=C(SCC(=O)Nc2ccc(Cl)cc2Cl)C(c2ccccc2)=N1,cell number change,,18.8%
CCN1C(=O)[C@@H]2[C@@H](c3ccc(-c4ccc(F)cc4)c(OC)c3)N3CCCC[C@@]3(C(=O)OC)[C@@H]2C1=O,cell number change,,-13.1%
same,AC50,[2],"29.1 µM [falling, single point]"
CCOc1ccc2nc(NC(=O)c3cccc(-c4cc5ccccc5oc4=O)c3)sc2c1,cell number change,,3.34%
same,AC50,[2],"0.731 µM [rising, single point]"
Cc1ccc(S(=O)(=O)N2CCCOC2)cc1,AC50,[2],"0.231 µM [falling, partial curve, poor fit]"
CC(C)(C)c1ccc(OCCC(=O)OCC(=O)NC2CC2)cc1,cell number change,,-9.61%
same,AC50,[1],"0.82 µM [falling, single point]"
same,AC50,[2],"0.731 µM [falling, full curve, poor fit]"
CCn1c(=O)c2sccc2n2c(CCCC(=O)N3CCN(c4ccccn4)CC3)nnc12,AC50,[2],"6.51 µM [falling, single point]"
COC(=O)CN1C(=O)C(O)(CC(=O)c2ccc(C)o2)c2ccccc21 (stereo not given),cell number change,,3.91%
same,AC50,[2],"29.1 µM [falling, partial curve, poor fit]"
CC1CC1C(=O)OCc1cc(=O)n2cc(Br)ccc2n1 (stereo not given),cell number change,,25.4%
COc1ccccc1CNC(=O)CN(c1ccc(C)cc1)S(=O)(=O)c1c(C)nn(C)c1C,cell number change,,-0.285%
same,AC50,[2],"2.06 µM [rising, full curve, poor fit]"
CC1CCCCC1NC(=O)/C(C#N)=C/C=C/c1ccccc1[N+](=O)[O-] (stereo not given),cell number change,,-30.4%
COC(=O)c1ccc(OCC(O)CN2C(=O)NC(C)(C)C2=O)cc1 (stereo not given),cell number change,,9.73%
same,AC50,[2],"1.3 µM [falling, partial curve]"

# Reprinted at random: four records from the list, in no set order.
smiles,measurement,setting,value
CC1CC1C(=O)OCc1cc(=O)n2cc(Br)ccc2n1 (stereo not given),cell number change,,25.4%
CC(C)C(NC(=O)c1ccc(F)cc1)C(=O)OCC(=O)N1CC(=O)Nc2ccccc21 (stereo not given),cell number change,,-54.1%
COc1ccc(CCNS(=O)(=O)c2ccc3c(c2)OCCO3)cc1,AC50,[2],"6.51 µM [falling, single point]"
Cn1cnc([N+](=O)[O-])c1S(=O)(=O)c1ccc(Cl)cc1,AC50,[2],"16.4 µM [falling, partial curve]"

# Another view of part of the listing above:
smiles | measurement | setting | value
CCOc1ccc2nc(NC(=O)c3cccc(-c4cc5ccccc5oc4=O)c3)sc2c1 | cell number change |  | 3.34%
same | AC50 | [2] | 0.731 µM [rising, single point]
Cc1ccc(S(=O)(=O)N2CCCOC2)cc1 | AC50 | [2] | 0.231 µM [falling, partial curve, poor fit]
